The other results are listed elsewhere or left out. These are raw signals, not scaled to a control.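 Primary screen: polymyxin B was added at a level permeabilizing Salmonella outer membranes while sparing inner membranes. DMSO wells, both with and without polymyxin B, established maximum growth. Plate-to-plate variation meant each plate was ranked on its own, and the lowest-OD600 compounds were selected as hits.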
Tested on: Salmonella enterica serovar Typhimurium SL1344
Experiment: bacterial growth OD600 after 18 h with compound and polymyxin B; higher = more bacterial growth (less inhibition)
Settings: 50 µM, Mueller-Hinton broth

SMILES	bacterial growth OD600 (polymyxin B 0.75 µg/mL)	bacterial growth OD600 (polymyxin B 1 µg/mL)
O=C(c1ccc2ncccc2c1)N1CCc2[nH]nc(-c3cccc(F)c3)c2C1	0.007	
CCN1CCN(C2(C(=O)NC(C)Cc3ncccc3C)Cc3ccccc3C2)CC1 (configuration not stated)	0.775	
Cc1cccc(CN2CCC(n3nccc3NC(=O)c3ccccc3C)CC2)c1		0.904
CCOC(=O)CNC(=O)N1CCCC(N2CCN(Cc3ccc4c(c3)OCO4)CC2)C1 (configuration not stated)		0.922
CCN(CCn1cccn1)c1ccc(-c2nc(COC)no2)cn1	0.856	
CSc1ncc(CN2CC[C@@H](N3CCN(CCc4ccccc4)CC3)[C@H](O)C2)cn1		1.24
O=C(Cc1ccc(N2CCC(NCc3cnn(-c4ccccc4)n3)CC2)cc1)N1CCC(O)CC1	0.662	
CCN1CC(CN(C)Cc2cn(-c3cccc(C)c3)nc2-c2cccc(F)c2)CC1=O (configuration not stated)		0.027
COC(=O)c1ccccc1NC(=O)N1CCCC(Nc2ccc(OC)cc2)C1 (configuration not stated)		0.915
COC(=O)c1cccc(C(=O)N2CCCC(C(=O)c3cccc4ccccc34)C2)c1 (configuration not stated)		0.364
Cc1cccc(CNC(=O)C2CC23CCN(C(=O)COc2ccccc2Cl)CC3)n1 (configuration not stated)	0.931	
O=C(CCc1cccs1)N1CCc2[nH]nc(-c3cccc(F)c3)c2C1	0.577	
COc1ccc2c(c1)CCc1cnc(-n3ncc(C(=O)N(C)CC4COCCO4)c3C3CC3)nc1-2 (configuration not stated)	0.871	
Cc1cc(C(=O)N2CCC(n3nccc3NC(=O)c3ccc4c(c3)OCO4)CC2)c(C)o1		0.928
CNC(=O)c1cn(C2CCCCC2)cc(C(=O)N2CCN(C/C=C/c3ccccc3)CC2)c1=O	0.859	
O=C(c1cc(COc2ccccc2)[nH]n1)N1CCN(C2CCCC2)CC1		0.928

SMILES	bacterial growth OD600 (polymyxin B 0.75 µg/mL)	bacterial growth OD600 (polymyxin B 1 µg/mL)
C=C(C)CNC(=O)c1cc(CN2CCC(Cc3ccccc3)CC2)on1		0.981
Cc1cccc(N2CCN(c3nc4nonc4nc3N3CCOCC3)CC2)n1	0.777	
CSc1cccc(CNC2CCCN(Cc3ccccc3F)C2)c1 (configuration not stated)	0.82	
O=C(CSc1ccc2nnc(-c3cccnc3)n2n1)N1CCC(Sc2ccc(F)cc2)CC1	0.91	
CN(c1ccc(-c2nc(COc3ccccc3)no2)cn1)C1CCOCC1		0.867
COCc1ccc(C(=O)N2CCc3onc(-c4cccc(F)c4)c3C2)s1	0.002	
O=C(Nc1ccccc1Cl)Nc1ccnn1C1CCN(C(=O)C2CC2)CC1	0.914	
Cc1nc(CN(C)C(=O)c2cnn(-c3ncc(C)c(-c4ccc(F)cc4)n3)c2C(C)C)cs1	0.868	
CC(C)S(=O)(=O)c1ncc(CN(C)C2CCOCC2)n1CCc1ccccc1		1
OCC1(Cc2ccc(F)cc2)CCCN(Cc2cccc(Cl)c2)C1 (configuration not stated)	0.01	
COc1ccc(CCNC(=O)CCC2(Cc3ccc(F)c(OC)c3)CCC(=O)N2)c(OC)c1 (configuration not stated)	0.835	
c1cc(CN2CCCC2)ccc1CNc1nncc(-c2ccc3c(c2)OCO3)n1	0.729	
CCNC(=O)N1CCCC(Cc2ccc(F)cc2F)(C(=O)OCC)C1 (configuration not stated)		0.836
COc1ccc(CN2CCC(n3nccc3NC(=O)C3CC3)CC2)c(Cl)c1OC		0.812
Cc1ccccc1N1CCN(C(=O)c2ccc(OC3CCN(C(=O)C4CC4)CC3)cc2)CC1		0.608
O=C(CCC1CCN(Cc2ccc(Cl)s2)CC1)N1CCN(c2ccccc2)CC1		0.892

Reprinted at random: 2 records from the list, in no set order.
SMILES	bacterial growth OD600 (polymyxin B 0.75 µg/mL)	bacterial growth OD600 (polymyxin B 1 µg/mL)
Cc1nc(CN(C)C(=O)c2cnn(-c3ncc(C)c(-c4ccc(F)cc4)n3)c2C(C)C)cs1	0.868	
O=C(CSc1ccc2nnc(-c3cccnc3)n2n1)N1CCC(Sc2ccc(F)cc2)CC1	0.91	

Reference: the supplement of paper PMC12889115
